These are yes or no findings as the source states them, for the method shown. Binding seen in cells or lysates may run through a third protein. Some results given as binding are weak or reduced against the parent protein; the word gives no strength.
Biological target: p11 protein (also called S100A10) (human (endogenous in Nalm6)) (UniProt P60903)
Assay: co-IP; Nalm6 cells treated with DMSO for 6 h, lysed in 1% Triton X-100 buffer; 1 mg lysate protein incubated overnight with anti-p11 antibody on Protein A Mag Agarose beads via rabbit anti-mouse antibody; blot for ANX2 and p11

Chains of the proteins cited; added tags and fusions are not shown.
UniProt P60903: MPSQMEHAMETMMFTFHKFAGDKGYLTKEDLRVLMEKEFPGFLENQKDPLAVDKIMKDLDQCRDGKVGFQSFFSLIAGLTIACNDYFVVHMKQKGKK
UniProt P07355: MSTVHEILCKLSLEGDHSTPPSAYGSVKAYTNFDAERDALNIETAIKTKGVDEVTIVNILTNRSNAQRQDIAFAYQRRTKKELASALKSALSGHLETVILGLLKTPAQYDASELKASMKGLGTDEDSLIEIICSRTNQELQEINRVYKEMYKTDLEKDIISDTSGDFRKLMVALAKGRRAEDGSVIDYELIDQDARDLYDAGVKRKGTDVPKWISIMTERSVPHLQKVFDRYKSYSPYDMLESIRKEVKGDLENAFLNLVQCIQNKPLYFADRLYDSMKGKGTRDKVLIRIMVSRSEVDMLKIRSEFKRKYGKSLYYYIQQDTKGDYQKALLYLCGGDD

binding: binds
Substance: Annexin II (from UniProt P07355 1-339)
